Data published in PMC10542384.
Changes are numbered by the printed parent chain. No constants are given. Whether binding was seen depends on the method and setting. Binding seen in cells or lysates may run through a third protein. Some results given as binding are weak or reduced against the parent protein; the word gives no strength. For some assays here: Sequences can lack the tags named with a protein.

Chains of the proteins cited; added tags and fusions are not shown. Lines headed by an entry give the natural chain unless they say otherwise; changes in a name come on top.
UniProt P54132: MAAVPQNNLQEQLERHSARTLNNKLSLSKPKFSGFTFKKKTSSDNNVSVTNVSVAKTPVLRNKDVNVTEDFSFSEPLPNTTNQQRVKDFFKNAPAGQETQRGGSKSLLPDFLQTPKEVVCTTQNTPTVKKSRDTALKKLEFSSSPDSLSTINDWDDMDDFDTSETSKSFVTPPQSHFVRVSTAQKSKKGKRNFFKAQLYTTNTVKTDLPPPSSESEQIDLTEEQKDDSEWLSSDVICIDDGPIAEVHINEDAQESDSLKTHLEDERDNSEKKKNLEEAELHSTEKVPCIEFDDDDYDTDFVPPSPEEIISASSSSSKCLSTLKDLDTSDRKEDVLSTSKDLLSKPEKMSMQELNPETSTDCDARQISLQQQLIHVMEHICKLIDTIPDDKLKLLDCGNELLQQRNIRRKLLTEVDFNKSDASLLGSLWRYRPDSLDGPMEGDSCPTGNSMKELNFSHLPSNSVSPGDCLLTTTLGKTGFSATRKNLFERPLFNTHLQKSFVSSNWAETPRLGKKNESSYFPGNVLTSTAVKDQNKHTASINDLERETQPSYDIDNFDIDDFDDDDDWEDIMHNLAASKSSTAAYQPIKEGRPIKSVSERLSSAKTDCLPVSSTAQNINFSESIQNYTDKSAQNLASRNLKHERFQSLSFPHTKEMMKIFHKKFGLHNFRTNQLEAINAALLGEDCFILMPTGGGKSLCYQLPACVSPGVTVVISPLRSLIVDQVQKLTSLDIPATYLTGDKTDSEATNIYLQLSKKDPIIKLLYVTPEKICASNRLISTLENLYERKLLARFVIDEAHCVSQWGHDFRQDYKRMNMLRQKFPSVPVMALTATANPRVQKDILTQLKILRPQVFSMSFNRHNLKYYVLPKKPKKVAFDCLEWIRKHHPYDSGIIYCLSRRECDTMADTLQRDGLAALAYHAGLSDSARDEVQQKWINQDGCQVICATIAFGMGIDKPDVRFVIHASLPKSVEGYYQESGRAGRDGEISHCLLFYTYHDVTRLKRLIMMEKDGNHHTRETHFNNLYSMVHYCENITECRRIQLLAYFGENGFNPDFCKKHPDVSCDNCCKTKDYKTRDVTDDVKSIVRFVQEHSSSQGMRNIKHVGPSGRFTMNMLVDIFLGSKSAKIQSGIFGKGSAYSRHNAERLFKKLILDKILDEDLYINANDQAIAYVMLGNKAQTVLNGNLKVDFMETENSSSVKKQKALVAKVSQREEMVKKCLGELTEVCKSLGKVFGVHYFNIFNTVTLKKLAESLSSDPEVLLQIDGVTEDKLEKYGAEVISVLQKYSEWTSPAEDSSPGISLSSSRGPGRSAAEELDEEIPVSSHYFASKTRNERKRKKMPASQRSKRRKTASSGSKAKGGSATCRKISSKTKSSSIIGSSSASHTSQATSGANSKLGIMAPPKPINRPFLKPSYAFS

Key:
[1] = biological target: GFP-tagged BLM K317R/K331R mutant (UniProt P54132); experiment: co-IP; Flag/HA beads or antibodies on Protein A/G beads with lysates of 293T or U2OS cells in modified NETN buffer (20 mM Tris-HCl pH 7.6, 95 mM NaCl, 1 mM EDTA, 0.5% Nonidet P-40), 4 °C overnight, blot; Fig. 6j with or without the CK2 inhibitor TBB
[2] = biological target: T1, ARKL1 S328A mutant (ARKL1^S328A) (UniProt Q96B23); experiment: as above
T1 sequence: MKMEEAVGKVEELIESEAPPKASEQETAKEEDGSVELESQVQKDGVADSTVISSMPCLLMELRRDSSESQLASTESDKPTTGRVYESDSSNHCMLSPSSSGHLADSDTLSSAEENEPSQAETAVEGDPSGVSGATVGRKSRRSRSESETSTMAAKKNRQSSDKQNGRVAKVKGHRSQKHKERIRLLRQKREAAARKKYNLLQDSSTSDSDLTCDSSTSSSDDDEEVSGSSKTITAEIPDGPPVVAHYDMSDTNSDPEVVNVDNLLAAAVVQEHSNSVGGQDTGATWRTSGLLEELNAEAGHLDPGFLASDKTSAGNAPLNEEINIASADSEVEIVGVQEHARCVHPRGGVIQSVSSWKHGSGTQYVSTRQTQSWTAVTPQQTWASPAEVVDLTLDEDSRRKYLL

[3] = biological target: T2, ARKL1 wild type (ARKL1^WT), construct not told (UniProt Q96B23); experiment: as above
T2 sequence: T1 sequence with A328S

[4] = biological target: T3, HA-ARKL1 wild type (UniProt Q96B23); experiment: as above
T3 sequence: T1 sequence with A328S

[5] = biological target: T4, ARKL1-Flag (UniProt Q96B23); experiment: as above
T4 sequence: T1 sequence with A328S

[6] = biological target: GFP-tagged BLM wild type (UniProt P54132); experiment: as above
[7] = biological target: T3, HA-ARKL1 wild type; experiment: proximity ligation; Duolink PLA on fixed and permeabilised cells (U2OS WT or KO cells complemented with the named constructs; Fig. 4d and 5b in cells expressing GFP-PML)
[8] = biological target: T5, Arkadia-like 1 (ARKL1) (human (endogenous in U2OS)) (UniProt Q96B23); experiment: as above
T5 sequence: T1 sequence with A328S

binding [1]: binds
binding [2]: binds
binding [3]: binds
binding [4]: binds
binding [5]: binds
binding [6]: binds
binding [7]: binds
binding [8]: binds
B1: RNF111 (Arkadia) (protein, UniProt Q6ZNA4 1-994)
chain: MSQWTPEYNELYTLKVDMKSEIPSDAPKTQESLKGILLHPEPIGAAKSFPAGVEMINSKVGNEFSHLCDDSQKQEKEMNGNQQEQEKSLVVRKKRKSQQAGPSYVQNCVKENQGILGLRQHLGTPSDEDNDSSFSDCLSSPSSSLHFGDSDTVTSDEDKEVSVRHSQTILNAKSRSHSARSHKWPRTETESVSGLLMKRPCLHGSSLRRLPCRKRFVKNNSSQRTQKQKERILMQRKKREVLARRKYALLPSSSSSSENDLSSESSSSSSTEGEEDLFVSASENHQNNPAVPSGSIDEDVVVIEASSTPQVTANEEINVTSTDSEVEIVTVGESYRSRSTLGHSRSHWSQGSSSHASRPQEPRNRSRISTVIQPLRQNAAEVVDLTVDEDEPTVVPTTSARMESQATSASINNSNPSTSEQASDTASAVTSSQPSTVSETSATLTSNSTTGTSIGDDSRRTTSSAVTETGPPAMPRLPSCCPQHSPCGGSSQNHHALGHPHTSCFQQHGHHFQHHHHHHHTPHPAVPVSPSFSDPACPVERPPQVQAPCGANSSSGTSYHEQQALPVDLSNSGIRSHGSGSFHGASAFDPCCPVSSSRAAIFGHQAAAAAPSQPLSSIDGYGSSMVAQPQPQPPPQPSLSSCRHYMPPPYASLTRPLHHQASACPHSHGNPPPQTQPPPQVDYVIPHPVHAFHSQISSHATSHPVAPPPPTHLASTAAPIPQHLPPTHQPISHHIPATAPPAQRLHPHEVMQRMEVQRRRMMQHPTRAHERPPPHPHRMHPNYGHGHHIHVPQTMSSHPRQAPERSAWELGIEAGVTAATYTPGALHPHLAHYHAPPRLHHLQLGALPLMVPDMAGYPHIRYISSGLDGTSFRGPFRGNFEELIHLEERLGNVNRGASQGTIERCTYPHKYKKVTTDWFSQRKLHCKQDGEEGTEEDTEEKCTICLSILEEGEDVRRLPCMHLFHQVCVDQWLITNKKCPICRVDIEAQLPSES
